Primary screen of a compound library

Protein sequences, listed by entry. Tags and fused reporters are not part of them. Residues count along the entry.
UniProt P9WPC5, whole entry: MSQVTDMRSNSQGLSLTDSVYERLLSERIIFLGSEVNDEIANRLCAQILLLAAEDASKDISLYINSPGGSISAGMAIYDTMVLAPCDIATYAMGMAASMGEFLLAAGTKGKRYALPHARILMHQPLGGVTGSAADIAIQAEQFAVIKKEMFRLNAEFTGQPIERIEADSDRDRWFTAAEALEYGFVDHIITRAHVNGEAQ
UniProt P9WPC3, whole entry partner: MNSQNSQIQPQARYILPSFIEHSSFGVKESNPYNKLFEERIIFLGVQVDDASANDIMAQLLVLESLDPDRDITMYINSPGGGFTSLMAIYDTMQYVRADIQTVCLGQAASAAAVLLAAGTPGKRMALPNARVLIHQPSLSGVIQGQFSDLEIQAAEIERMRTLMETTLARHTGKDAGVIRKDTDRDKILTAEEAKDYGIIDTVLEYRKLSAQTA
UniProt P9WNZ1, whole entry: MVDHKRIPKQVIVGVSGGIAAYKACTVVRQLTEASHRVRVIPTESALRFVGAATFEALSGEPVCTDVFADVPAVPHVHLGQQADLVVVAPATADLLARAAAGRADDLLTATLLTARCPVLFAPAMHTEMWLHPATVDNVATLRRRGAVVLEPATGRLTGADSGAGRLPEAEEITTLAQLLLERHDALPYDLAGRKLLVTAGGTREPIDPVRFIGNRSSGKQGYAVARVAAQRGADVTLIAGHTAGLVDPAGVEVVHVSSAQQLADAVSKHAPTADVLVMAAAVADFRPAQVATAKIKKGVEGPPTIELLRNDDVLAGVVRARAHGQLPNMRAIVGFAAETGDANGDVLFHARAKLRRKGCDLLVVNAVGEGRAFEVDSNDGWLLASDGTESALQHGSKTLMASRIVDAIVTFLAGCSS
UniProt Q8IDJ8, 1-583: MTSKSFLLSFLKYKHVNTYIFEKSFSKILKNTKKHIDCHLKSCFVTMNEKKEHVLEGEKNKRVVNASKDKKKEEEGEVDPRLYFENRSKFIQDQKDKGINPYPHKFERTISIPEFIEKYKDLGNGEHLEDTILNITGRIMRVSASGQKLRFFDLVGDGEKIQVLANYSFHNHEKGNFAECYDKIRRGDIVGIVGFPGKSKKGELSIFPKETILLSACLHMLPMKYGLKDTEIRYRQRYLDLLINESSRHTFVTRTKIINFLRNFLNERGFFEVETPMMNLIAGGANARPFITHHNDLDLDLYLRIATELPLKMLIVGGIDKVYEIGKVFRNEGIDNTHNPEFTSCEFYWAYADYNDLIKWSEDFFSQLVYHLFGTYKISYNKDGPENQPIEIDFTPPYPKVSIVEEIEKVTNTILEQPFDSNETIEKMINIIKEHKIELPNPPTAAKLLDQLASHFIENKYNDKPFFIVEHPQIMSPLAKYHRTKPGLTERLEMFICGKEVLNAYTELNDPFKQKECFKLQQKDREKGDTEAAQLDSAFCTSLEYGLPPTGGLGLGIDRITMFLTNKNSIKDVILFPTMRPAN

ClpP1P2: 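ClpP1P2, Mycobacterium tuberculosis (UniProt P9WPC5 and UniProt P9WPC3). Protease assay of ClpP1P2, read by the AMC dye that it sets free. Tested at 50 µM. Higher reads as stronger inhibition, judged from the few compounds that gave an IC50. Most other retested compounds had strongly negative values. Size under these conditions: about 69,000 compounds, about 10 of them at 50% or above in at least one test.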
CoaBC: 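Coenzyme A biosynthesis protein CoaBC, Mycobacterium tuberculosis (UniProt P9WNZ1). Enzyme assay of CoaBC with a phosphate dye (Biomol Green) read at 650 nm. Compounds at 30 µM. Direction is inferred from only a few compounds that gave an IC50; most scored high, so higher reads as stronger inhibition. Most strong results did not repeat in a second test. Size under these conditions: about 67,000 compounds, about 40 of them at 50% or above in at least one test.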
PfKRS1: 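Lysine-tRNA ligase, Plasmodium falciparum 3D7 (UniProt Q8IDJ8). Enzyme assay of the cytosolic lysyl-tRNA synthetase in 384-well plates, read by luminescence. Tested at 30 µM. Higher reads as stronger inhibition, judged from the few compounds that gave an IC50. About 69,000 compounds were tested under these conditions; 0.071% (about 49) showed 50% or more at least once.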
Leishmania in macrophages: 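Cell assay of Leishmania donovani living inside macrophages; the read-out is not stated. Concentration: 30 µM. Direction is inferred from retests: higher values go with stronger inhibition. Of about 69,000 compounds tested this way, about 1,000 (1.5%) reached 50% or more in at least one test.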

The filed quantity is “Percent Effect” (%). The record does not define 0% and 100%; most values in the screen are far below 50% and negative numbers occur (in some assays of this library far below -100). This is an unselected part of the compounds tested. Two or more numbers in one place are separate tests of the same structure; such repeats can differ widely.

{"structure": "CCC(C)(N)c1nc(=O)c(C(C)C)c(C)[nH]1", "stereo": "stereo not given", "ClpP1P2": 4.764, "CoaBC": 8.961, "PfKRS1": 8.078}
{"structure": "Cc1cc(CC(=O)NCC(O)c2ccc(OC(F)F)cc2)n[nH]1", "stereo": "stereo not given", "ClpP1P2": -8.402, "CoaBC": -1.098, "PfKRS1": -3.299, "Leishmania in macrophages": 18.83}
{"structure": "CCS(=O)(=O)CC(=O)NC(C)c1ccccc1Oc1ccccc1", "stereo": "stereo not given", "ClpP1P2": 1.531, "CoaBC": 9.728, "PfKRS1": 8.374, "Leishmania in macrophages": 19.32}
{"structure": "CS(=O)(=O)N1CC[C@H]2C[C@@H](C(=O)N3CCOCC3)O[C@@H]2C1", "ClpP1P2": -5.768, "CoaBC": 1.142, "PfKRS1": -3.393}
{"structure": "CCN1CCc2[nH]cnc2C12CCN(C(=O)CCc1cccs1)CC2", "ClpP1P2": 2.91, "CoaBC": 1.272, "PfKRS1": -1.775, "Leishmania in macrophages": "3.71 and 23.62"}
{"structure": "O=C(O)C(F)(F)F.O=C(O)C(F)(F)F.[H][C@]12CCC[C@@H](CNc3ncccn3)[C@@]1([H])CN(CCOC)C2", "Leishmania in macrophages": 33.08}
{"structure": "COCc1ccc(OC)c(CNC2CCCNC2=O)c1", "stereo": "stereo not given", "ClpP1P2": -0.6537, "CoaBC": 1.9, "PfKRS1": 2.615, "Leishmania in macrophages": 31.86}
{"structure": "O=C(O)C(F)(F)F.O=C(O)C(F)(F)F.[H][C@]12CCN(Cc3ccco3)[C@@]1([H])CC[C@@H](COCc1cccc(C)n1)O2", "Leishmania in macrophages": 20.88}
{"structure": "CC(C(=O)N1CCOCC1)N1CCN(Cc2nccn2C)CC1", "stereo": "stereo not given", "ClpP1P2": -29.92, "CoaBC": 1.916, "PfKRS1": 0.5335, "Leishmania in macrophages": -4.775}
{"structure": "CCCS(=O)(=O)N1C[C@H]2C[C@H](C(=O)Nc3cccnc3)[C@@H](C1)O2", "ClpP1P2": 0.9612, "CoaBC": 4.75, "PfKRS1": 4.59}
{"structure": "Cc1cc(Nc2ccc(F)cn2)cc(C2CCCN2)n1", "stereo": "stereo not given", "ClpP1P2": -36.36, "CoaBC": -2.968, "PfKRS1": -1.398, "Leishmania in macrophages": -27.67}
{"structure": "Cc1nnc([C@H]2C[C@H]3OCC[C@H]3N(S(=O)(=O)C3CC3)C2)o1", "ClpP1P2": 4.496, "PfKRS1": 6.019}
{"structure": "C1CCc2nnc(CNc3nc(C4CC4)nc4c3CCNCC4)n2CC1", "ClpP1P2": -3.964, "CoaBC": 11.6, "PfKRS1": 2.748, "Leishmania in macrophages": 16.03}
{"structure": "COc1ccc(C(C)NCc2ccc(OC)c(OC)c2OC)cc1F.Cl", "stereo": "stereo not given", "Leishmania in macrophages": 25.31}
{"structure": "Cc1cc(C)n(CC2CCCN2C(=O)c2c[nH]c(=O)c(Cl)c2)n1", "stereo": "stereo not given", "ClpP1P2": 1.782, "CoaBC": 1.366, "PfKRS1": 0.6061, "Leishmania in macrophages": 0.187}
{"structure": "CC(C)C(Sc1nnc(NC2CC2)s1)C(=O)NCc1cccnc1", "stereo": "stereo not given", "ClpP1P2": 10.19, "CoaBC": 2.526, "PfKRS1": -0.3909, "Leishmania in macrophages": 16.07}
{"structure": "COc1ccc(OCC(O)CN2CCN(c3nccs3)CC2)cc1", "stereo": "stereo not given", "ClpP1P2": 13.16, "CoaBC": -0.4132, "PfKRS1": 3.362, "Leishmania in macrophages": 19.93}
{"structure": "CO[C@H]1CNC[C@@H]1NC(=O)c1cc(C)nc2c(C)c(C)ccc12", "ClpP1P2": 0.0826, "CoaBC": -50.8, "PfKRS1": 0.7324, "Leishmania in macrophages": -1.872}
{"structure": "CN(c1ccc(Cl)c(C(=O)NCCCN2CCOCC2)c1)S(C)(=O)=O", "ClpP1P2": -13.92, "CoaBC": -1.015, "PfKRS1": -4.117, "Leishmania in macrophages": 1.532}
{"structure": "O=C(NCCNC(=O)c1ccc(Cl)cc1)NCCn1cccc1", "ClpP1P2": -16.3, "CoaBC": 0.3632, "PfKRS1": 5.286, "Leishmania in macrophages": 13.07}
{"structure": "O=C(Cc1ccc2c(c1)CCC2)N1CCCC(n2cccn2)C1", "stereo": "stereo not given", "ClpP1P2": -5.862, "CoaBC": 0.6479, "PfKRS1": 9.71, "Leishmania in macrophages": 20.31}
{"structure": "N#CCCN(C(=O)CN1CCCC1c1ccsc1)c1ccccc1F", "stereo": "stereo not given", "ClpP1P2": 4.459, "CoaBC": 5.059, "PfKRS1": 4.858, "Leishmania in macrophages": 16.62}
{"structure": "[H][C@@]12C[C@@H](Oc3cccnc3)CN1CCN(C(=O)c1ccnnc1)C2", "Leishmania in macrophages": 24.43}
{"structure": "Nc1ccnn1C1CCN(Cc2ccccc2)C1", "stereo": "stereo not given", "ClpP1P2": -2.13, "CoaBC": 0.6046, "PfKRS1": 1.723, "Leishmania in macrophages": -6.99}
{"structure": "N#Cc1ccc(CN2CCCN(C(=O)CCn3cncn3)CC2)cc1", "ClpP1P2": 2.207, "CoaBC": 5.976, "PfKRS1": -4.066, "Leishmania in macrophages": 25.08}
{"structure": "O=C(O)C(F)(F)F.O=C(O)C(F)(F)F.[H][C@@]12OCCN(Cc3ccoc3)[C@@]1([H])CC[C@H]2OCc1ccncc1", "Leishmania in macrophages": 41.39}
{"structure": "COc1ccc(-c2cc(CN)nc3ccnn23)cc1", "ClpP1P2": -0.7588, "CoaBC": 3.976, "PfKRS1": 0.241}
{"structure": "CC(=O)c1ccc(NC(=O)NCc2cccc(N(C)C)n2)cc1C", "ClpP1P2": 2.963, "CoaBC": -3.74, "PfKRS1": 0.7264, "Leishmania in macrophages": 35.98}
{"structure": "Cc1c(C)n(Cc2ccccn2)c2nc3c(c(N)c12)CCCCC3", "ClpP1P2": -0.01619, "CoaBC": 8.333, "PfKRS1": 2.812, "Leishmania in macrophages": 38.18}
{"structure": "Cc1cc(=O)n2nc(Oc3ccc(C#N)cc3Cl)sc2n1", "ClpP1P2": 0.9738, "CoaBC": 8.657, "PfKRS1": 6.002, "Leishmania in macrophages": 25.15}
{"structure": "COc1ccccc1C(O)CNC(=O)Nc1cccnc1OC", "stereo": "stereo not given", "ClpP1P2": -16, "CoaBC": 2.887, "PfKRS1": 1.039, "Leishmania in macrophages": 22.27}
{"structure": "COc1cccc(OC)c1-c1c[nH]c(C)n1", "ClpP1P2": -10.37, "CoaBC": 5.471, "PfKRS1": -0.6862, "Leishmania in macrophages": 3.664}
{"structure": "Cc1nccn1-c1ccc(=O)n(CCNC(=O)c2ccccn2)n1", "ClpP1P2": -20.32, "CoaBC": 0.7264, "PfKRS1": 0.08177, "Leishmania in macrophages": -12.29}
{"structure": "COc1ccc(CNC(=O)N2CCN(CC(O)C3CC3)CC2)cc1", "stereo": "stereo not given", "ClpP1P2": -13.98, "CoaBC": 3.03, "PfKRS1": 6.456}

The values are deposited in ChEMBL (CHEMBL3988442, “University of Dundee, Small-Polar-MMV Screening Library” (2021)).